Amino acid sequences for entries named in this document (tags omitted). A change or cut given only in a name is not applied to a line headed by its entry.
UniProt Q07021: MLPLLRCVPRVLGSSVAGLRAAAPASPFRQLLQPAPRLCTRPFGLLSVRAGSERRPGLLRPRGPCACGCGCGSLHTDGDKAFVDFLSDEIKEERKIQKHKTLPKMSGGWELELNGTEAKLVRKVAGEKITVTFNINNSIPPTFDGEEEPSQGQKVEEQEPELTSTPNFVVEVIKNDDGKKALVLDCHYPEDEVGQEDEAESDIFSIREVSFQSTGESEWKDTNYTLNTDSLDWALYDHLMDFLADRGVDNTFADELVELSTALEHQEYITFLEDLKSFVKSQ

In paper PMC3750045, “Human RNase H1 Is Associated with Protein P32 and Is Involved in Mitochondrial Pre-rRNA Processing” (PLoS ONE, 2013):

Experiments:
GST-P32 (Homo sapiens) = GST-P32 (Homo sapiens) (UniProt Q07021); test: EMSA; conditions: 2 mM Mg2+, 4 C; strand 1 uniformly 2'-fluoro RNA; strand 2 DNA; EMSA: 20 mM Tris pH 7.0, 20 mM NaCl, 2 mM MgCl2, 5% glycerol, 30 min at 4 C; recombinant protein; protein details: N-terminal GST; label: 32P (5' end); synthetic backbone
[1] = biological target: T1, His-RNase H1 (Homo sapiens) (UniProt O60930); test: competition (inhibition of cleavage of the Apo B RNA/DNA duplex); conditions: plus GST control, value only in figure; strand 1 uniformly 2'-fluoro RNA; strand 2 DNA; EMSA: 20 mM Tris pH 7.0, 20 mM NaCl, 2 mM MgCl2, 5% glycerol, 30 min at 4 C; recombinant protein; residues 1-286; protein details: N-terminal His; label: 32P (5' end); synthetic backbone
T1 sequence (looked up): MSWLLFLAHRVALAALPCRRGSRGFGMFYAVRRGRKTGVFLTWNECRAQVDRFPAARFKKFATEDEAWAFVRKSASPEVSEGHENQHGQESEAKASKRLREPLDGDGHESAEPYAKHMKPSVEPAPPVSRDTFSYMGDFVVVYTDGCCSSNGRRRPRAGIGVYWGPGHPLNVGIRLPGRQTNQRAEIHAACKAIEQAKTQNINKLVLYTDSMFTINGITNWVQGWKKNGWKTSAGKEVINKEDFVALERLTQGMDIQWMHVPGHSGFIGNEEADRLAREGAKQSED

His-RNase H1 + GST-P32 = test: as above; conditions: value only in figure, strand 1 uniformly 2'-fluoro RNA, strand 2 DNA, EMSA: 20 mM Tris pH 7.0, 20 mM NaCl, 2 mM MgCl2, 5% glycerol, 30 min at 4 C, recombinant protein, protein details: N-terminal His,N-terminal GST, label: 32P (5' end), synthetic backbone

GGAUGGUAGCACAAGUGACA / TGTCCTTGTGCTACCATCC [Duplex B, non-cleavable Apo B 2'-fluoro RNA/DNA heteroduplex]
binding result (GST-P32 (Homo sapiens)): no binding | binding result [1]: binds | binding result (His-RNase H1 + GST-P32; H1:P32 1:1, Kd increase similar to ~4-fold Km increase vs GST control): binds more weakly | binding result (His-RNase H1 + GST-P32; H1:P32 1:5, Kd increase similar to ~5-fold Km increase vs GST control): binds more weakly

For at least one entry, the source does not settle the construct or the ends of the probe. For some of these results: A negative result means that nothing was seen under these conditions. For some of these results: Weaker means in comparison with the reference protein, sequence or condition of that experiment. For some of these results: At least one verdict rests on a figure or table, not on a statement of the authors. For some of these results: Tags and fusion partners may be left off the protein sequences shown.
